Experimental data published in paper PMC10310764.
These are yes or no findings as the source states them, for the method shown. Binding seen in cells or lysates may run through a third protein. Some binding calls cover weakened binding; strength is not graded here.

Protein sequences, listed by entry. Tags and fused reporters are not part of them. Lines headed by an entry give the natural chain unless they say otherwise; changes in a name come on top.
UniProt Q05086: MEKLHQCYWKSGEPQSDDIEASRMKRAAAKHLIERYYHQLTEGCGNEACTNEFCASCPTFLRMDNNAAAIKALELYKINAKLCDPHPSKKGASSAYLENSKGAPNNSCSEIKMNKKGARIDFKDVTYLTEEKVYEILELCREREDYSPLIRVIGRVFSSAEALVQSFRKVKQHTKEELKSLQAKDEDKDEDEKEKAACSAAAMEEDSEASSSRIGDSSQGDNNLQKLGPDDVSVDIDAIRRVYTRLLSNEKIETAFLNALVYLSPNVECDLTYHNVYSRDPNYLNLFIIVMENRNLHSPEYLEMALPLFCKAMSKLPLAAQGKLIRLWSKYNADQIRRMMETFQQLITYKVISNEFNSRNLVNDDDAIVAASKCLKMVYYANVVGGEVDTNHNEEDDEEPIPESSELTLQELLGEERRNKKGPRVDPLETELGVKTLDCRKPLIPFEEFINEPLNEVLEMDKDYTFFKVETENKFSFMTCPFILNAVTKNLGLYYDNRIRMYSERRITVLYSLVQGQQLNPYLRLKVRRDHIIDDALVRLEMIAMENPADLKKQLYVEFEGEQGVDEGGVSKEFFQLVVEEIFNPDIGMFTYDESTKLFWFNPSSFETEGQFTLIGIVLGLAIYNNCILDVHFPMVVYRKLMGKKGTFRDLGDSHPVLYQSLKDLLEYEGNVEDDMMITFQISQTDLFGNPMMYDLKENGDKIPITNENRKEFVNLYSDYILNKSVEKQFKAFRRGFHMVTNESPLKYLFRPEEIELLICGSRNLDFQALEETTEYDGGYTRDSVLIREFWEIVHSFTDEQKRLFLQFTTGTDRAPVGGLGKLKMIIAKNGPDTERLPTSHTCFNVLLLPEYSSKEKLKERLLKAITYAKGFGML

T1: dual-specificity protein phosphatase 1 (human (endogenous in SK-MES-1 and NCI-H2170)) (UniProt P28562)
T1 sequence: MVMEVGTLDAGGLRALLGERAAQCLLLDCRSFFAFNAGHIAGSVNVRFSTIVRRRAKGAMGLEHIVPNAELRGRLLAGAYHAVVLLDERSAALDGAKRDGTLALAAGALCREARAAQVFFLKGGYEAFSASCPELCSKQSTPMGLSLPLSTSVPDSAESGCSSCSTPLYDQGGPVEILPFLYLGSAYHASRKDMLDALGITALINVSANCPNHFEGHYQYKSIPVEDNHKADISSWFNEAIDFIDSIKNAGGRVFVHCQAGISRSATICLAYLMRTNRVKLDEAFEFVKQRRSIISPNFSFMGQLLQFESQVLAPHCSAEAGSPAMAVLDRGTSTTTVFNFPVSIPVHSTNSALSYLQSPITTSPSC


Legend:
[1] = target: T1, dual-specificity protein phosphatase 1 (human (endogenous in SK-MES-1 and NCI-H2170)); test: co-IP; endogenous proteins; SK-MES-1 and NCI-H2170 whole cell lysates in RIPA buffer with PMSF; anti-UBE3A, anti-DUSP1 or control IgG on Protein A/G agarose beads, 2 h at 4 °C; western blot
[2] = target: T1, dual-specificity protein phosphatase 1 (human (endogenous in SK-MES-1 and NCI-H2170)); test: co-IP; endogenous proteins; cytosolic and nuclear protein fractions (Nuclear/Cytosol Fractionation Kit); both directions; western blot
[3] = target: ubiquitin-protein ligase E3A (human (endogenous in SK-MES-1 and NCI-H2170)) (UniProt Q05086); test: co-IP; endogenous proteins; SK-MES-1 and NCI-H2170 whole cell lysates in RIPA buffer with PMSF; anti-UBE3A, anti-DUSP1 or control IgG on Protein A/G agarose beads, 2 h at 4 °C; western blot
[4] = target: ubiquitin-protein ligase E3A (human (endogenous in SK-MES-1 and NCI-H2170)) (UniProt Q05086); test: co-IP; endogenous proteins; cytosolic and nuclear protein fractions (Nuclear/Cytosol Fractionation Kit); both directions; western blot

Row | binding [1] | binding [2] | binding [3] | binding [4] | Molecule
1 | binds | binds |  |  | ubiquitin-protein ligase E3A (from UniProt Q05086 1-875)
2 |  |  | binds | binds | dual-specificity protein phosphatase 1 (protein, UniProt P28562 1-367) MVMEVGTLDAGGLRALLGERAAQCLLLDCRSFFAFNAGHIAGSVNVRFSTIVRRRAKGAMGLEHIVPNAELRGRLLAGAYHAVVLLDERSAALDGAKRDGTLALAAGALCREARAAQVFFLKGGYEAFSASCPELCSKQSTPMGLSLPLSTSVPDSAESGCSSCSTPLYDQGGPVEILPFLYLGSAYHASRKDMLDALGITALINVSANCPNHFEGHYQYKSIPVEDNHKADISSWFNEAIDFIDSIKNAGGRVFVHCQAGISRSATICLAYLMRTNRVKLDEAFEFVKQRRSIISPNFSFMGQLLQFESQVLAPHCSAEAGSPAMAVLDRGTSTTTVFNFPVSIPVHSTNSALSYLQSPITTSPSC
